Assay results as given in publication PMC10846153.

System: T1, OxyR (Reut_A2805) (Cupriavidus pinatubonensis)
T1 sequence (looked up, limits assumed): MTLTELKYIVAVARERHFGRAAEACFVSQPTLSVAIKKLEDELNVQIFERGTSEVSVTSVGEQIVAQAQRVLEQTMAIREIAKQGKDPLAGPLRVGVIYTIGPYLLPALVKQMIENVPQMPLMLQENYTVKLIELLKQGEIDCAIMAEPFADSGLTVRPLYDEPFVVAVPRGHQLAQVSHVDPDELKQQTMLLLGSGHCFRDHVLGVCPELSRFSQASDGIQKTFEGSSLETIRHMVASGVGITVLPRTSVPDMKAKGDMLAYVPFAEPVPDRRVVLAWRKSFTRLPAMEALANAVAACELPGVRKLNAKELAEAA
Experiment: EMSA
Settings: DTT-treated OxyR, binding decreased as DTT increased; EMSA: 20 mM Tris pH 7.4, 4 mM MgCl2, 100 mM NaCl, 10% glycerol; 20 min at room temperature; 6% native PAGE with 5% glycerol in 0.5x TBE; recombinant protein; protein details: N-terminal His6 (pET28a); label: none (SYBR Green stain); probe letters rebuilt from the primers and the genome

AAATGCATCGCTCTCAGAATACCCAAAAATGAGCAATTCGATGCCATCGACTTTCGCGTTTCTGGCAACTTTGCGCGAACTGTAGAAAATACCGGATTACAGGTATTGTCCTGTCCAAGTCGCACAGCGTAAATTTCGCCTGACTTCCGTTGCGCAACCAACAGAAACACAAAGATT (double strand) [PT6SS1]
binding result: binds more weakly

For at least one entry, the source does not settle the construct or the ends of the probe. A weaker result is weaker than the reference pair of the same experiment. Where a protein sequence is shown, tags need not be part of it.
